According to the supplement of paper PMC10849652:
This is one part of the list.

By UniProt entry, the sequences of proteins in these tests, tags left out. Where a name states a change or a piece, a line headed by the entry shows the natural chain unless it says otherwise.
UniProt Q04759: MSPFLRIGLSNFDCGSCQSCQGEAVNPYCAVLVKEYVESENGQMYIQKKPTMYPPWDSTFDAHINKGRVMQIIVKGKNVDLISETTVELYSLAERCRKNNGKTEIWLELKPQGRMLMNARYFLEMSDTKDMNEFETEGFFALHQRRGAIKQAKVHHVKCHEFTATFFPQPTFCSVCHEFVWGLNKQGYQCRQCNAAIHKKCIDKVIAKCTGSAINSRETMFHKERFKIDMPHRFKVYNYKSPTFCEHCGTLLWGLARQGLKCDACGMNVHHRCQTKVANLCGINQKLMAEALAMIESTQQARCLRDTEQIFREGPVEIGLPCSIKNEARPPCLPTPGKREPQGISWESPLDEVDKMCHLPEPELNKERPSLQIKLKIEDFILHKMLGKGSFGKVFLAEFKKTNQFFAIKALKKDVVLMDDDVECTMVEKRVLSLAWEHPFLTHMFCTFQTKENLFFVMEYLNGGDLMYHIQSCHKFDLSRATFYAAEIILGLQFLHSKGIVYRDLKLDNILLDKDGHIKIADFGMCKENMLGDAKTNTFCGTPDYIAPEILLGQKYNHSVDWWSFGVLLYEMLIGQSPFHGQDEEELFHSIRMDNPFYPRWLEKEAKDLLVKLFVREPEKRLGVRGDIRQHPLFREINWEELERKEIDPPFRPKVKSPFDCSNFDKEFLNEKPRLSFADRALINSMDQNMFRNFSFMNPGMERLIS
UniProt Q6NYC8: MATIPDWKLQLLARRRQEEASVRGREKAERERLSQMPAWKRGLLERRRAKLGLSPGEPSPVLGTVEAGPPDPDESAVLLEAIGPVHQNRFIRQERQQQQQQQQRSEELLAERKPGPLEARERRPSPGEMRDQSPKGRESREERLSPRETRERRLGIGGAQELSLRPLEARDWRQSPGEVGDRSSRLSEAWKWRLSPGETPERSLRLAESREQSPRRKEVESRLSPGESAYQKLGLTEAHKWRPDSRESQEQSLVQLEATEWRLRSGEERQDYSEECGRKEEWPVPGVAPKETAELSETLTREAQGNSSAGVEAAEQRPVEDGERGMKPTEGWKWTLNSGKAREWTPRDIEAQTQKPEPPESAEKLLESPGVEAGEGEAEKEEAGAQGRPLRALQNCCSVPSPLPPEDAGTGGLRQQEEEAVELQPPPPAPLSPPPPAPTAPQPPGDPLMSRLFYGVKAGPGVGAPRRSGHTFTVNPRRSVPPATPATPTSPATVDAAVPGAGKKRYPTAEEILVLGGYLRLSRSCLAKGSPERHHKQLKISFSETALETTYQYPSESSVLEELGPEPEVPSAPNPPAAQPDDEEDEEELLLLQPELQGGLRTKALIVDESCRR
UniProt Q9NQV6: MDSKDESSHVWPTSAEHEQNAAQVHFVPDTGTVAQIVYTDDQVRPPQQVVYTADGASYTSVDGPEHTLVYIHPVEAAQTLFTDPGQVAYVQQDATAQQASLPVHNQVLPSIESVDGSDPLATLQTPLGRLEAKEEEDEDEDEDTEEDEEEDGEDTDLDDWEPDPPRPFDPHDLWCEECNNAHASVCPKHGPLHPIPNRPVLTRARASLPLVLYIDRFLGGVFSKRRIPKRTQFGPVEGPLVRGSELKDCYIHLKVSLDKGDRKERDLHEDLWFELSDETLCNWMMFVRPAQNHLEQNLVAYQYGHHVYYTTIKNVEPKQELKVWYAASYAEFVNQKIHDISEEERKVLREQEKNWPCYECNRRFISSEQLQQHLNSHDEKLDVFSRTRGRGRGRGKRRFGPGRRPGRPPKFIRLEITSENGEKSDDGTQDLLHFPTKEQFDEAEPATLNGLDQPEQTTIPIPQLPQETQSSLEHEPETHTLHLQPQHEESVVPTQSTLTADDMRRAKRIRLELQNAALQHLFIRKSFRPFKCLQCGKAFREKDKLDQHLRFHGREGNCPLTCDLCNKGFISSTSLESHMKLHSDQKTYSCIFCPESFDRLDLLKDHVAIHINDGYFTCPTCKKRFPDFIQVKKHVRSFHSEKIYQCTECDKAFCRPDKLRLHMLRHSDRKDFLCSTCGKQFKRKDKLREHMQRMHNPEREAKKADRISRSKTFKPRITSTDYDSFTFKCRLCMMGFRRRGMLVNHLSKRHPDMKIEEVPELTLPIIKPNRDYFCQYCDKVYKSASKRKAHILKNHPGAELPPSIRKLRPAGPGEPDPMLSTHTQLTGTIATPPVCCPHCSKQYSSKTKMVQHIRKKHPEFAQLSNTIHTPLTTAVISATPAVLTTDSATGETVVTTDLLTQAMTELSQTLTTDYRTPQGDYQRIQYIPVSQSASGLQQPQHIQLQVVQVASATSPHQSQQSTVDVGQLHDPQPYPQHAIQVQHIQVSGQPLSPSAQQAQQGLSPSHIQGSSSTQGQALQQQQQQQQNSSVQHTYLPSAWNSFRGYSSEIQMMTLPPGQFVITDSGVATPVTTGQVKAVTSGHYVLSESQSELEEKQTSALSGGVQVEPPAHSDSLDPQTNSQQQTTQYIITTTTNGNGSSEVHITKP
UniProt Q5VTL8: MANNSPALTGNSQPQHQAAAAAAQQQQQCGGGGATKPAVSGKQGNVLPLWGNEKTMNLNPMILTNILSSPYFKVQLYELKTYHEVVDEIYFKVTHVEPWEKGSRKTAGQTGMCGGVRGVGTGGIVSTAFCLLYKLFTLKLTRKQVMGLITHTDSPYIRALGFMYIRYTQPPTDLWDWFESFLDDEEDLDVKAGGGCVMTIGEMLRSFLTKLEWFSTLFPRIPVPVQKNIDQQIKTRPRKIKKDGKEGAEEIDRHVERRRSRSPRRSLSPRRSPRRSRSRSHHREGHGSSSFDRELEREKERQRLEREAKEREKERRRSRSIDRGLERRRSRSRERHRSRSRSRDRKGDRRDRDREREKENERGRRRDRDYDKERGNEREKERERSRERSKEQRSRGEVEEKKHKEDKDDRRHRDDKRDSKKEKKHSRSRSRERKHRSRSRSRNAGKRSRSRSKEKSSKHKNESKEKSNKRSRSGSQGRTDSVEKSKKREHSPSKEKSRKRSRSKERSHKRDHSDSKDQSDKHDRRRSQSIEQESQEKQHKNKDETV
UniProt P62140, whole entry, looked up: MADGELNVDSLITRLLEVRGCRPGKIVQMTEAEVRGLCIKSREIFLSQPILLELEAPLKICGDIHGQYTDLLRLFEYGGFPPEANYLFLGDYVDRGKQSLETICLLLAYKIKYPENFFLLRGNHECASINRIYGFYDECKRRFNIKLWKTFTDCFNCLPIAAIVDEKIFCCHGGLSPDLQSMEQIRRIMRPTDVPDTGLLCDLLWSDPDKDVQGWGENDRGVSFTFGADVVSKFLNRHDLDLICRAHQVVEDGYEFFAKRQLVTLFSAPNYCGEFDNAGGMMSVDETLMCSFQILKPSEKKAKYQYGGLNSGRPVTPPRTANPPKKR
UniProt O14974: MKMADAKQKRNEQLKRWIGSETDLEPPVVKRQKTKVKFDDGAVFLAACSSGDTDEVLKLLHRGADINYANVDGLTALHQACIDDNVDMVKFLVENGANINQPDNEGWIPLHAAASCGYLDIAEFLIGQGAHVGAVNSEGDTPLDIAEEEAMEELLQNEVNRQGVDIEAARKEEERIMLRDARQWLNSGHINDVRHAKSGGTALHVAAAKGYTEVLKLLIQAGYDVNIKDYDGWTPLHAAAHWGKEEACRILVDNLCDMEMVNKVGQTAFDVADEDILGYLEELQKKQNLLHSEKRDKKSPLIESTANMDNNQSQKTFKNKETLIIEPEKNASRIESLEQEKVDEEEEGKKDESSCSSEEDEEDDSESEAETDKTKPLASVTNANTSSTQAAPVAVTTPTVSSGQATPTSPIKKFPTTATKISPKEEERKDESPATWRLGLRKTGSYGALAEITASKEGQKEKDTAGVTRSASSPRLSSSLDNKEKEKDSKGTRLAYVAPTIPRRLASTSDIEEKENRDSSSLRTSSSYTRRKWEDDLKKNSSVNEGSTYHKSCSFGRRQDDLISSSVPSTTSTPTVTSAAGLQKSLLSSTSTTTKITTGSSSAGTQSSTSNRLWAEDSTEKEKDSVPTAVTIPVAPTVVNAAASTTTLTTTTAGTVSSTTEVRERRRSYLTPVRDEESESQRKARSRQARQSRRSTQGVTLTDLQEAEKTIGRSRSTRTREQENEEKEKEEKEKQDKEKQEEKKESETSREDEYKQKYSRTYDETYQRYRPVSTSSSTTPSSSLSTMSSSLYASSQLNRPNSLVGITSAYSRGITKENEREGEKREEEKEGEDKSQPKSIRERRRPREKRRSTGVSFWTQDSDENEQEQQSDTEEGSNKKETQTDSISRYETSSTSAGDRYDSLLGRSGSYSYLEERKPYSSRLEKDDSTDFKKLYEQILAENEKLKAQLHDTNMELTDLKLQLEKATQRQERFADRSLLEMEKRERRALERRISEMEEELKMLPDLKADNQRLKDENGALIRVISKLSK
UniProt P60510: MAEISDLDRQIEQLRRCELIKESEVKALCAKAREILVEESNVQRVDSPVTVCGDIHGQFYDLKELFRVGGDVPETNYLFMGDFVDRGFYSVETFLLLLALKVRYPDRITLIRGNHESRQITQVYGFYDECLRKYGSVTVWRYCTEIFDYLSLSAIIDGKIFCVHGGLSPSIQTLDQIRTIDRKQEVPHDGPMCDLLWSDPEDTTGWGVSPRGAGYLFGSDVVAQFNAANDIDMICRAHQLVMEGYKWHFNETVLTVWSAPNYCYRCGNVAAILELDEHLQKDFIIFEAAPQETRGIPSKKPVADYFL
UniProt P53041: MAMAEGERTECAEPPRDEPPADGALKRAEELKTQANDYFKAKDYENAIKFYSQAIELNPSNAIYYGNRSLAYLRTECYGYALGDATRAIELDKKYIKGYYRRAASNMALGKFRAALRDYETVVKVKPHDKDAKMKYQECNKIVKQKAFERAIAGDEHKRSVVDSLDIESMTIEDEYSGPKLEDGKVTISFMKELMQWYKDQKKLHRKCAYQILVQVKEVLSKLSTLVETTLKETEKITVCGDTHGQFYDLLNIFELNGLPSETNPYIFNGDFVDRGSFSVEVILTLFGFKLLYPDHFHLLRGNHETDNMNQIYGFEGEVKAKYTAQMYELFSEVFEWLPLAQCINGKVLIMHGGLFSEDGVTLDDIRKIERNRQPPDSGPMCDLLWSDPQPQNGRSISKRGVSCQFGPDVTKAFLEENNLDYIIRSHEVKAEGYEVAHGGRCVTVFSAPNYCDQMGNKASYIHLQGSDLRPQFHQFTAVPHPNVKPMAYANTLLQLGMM
UniProt Q86UA1: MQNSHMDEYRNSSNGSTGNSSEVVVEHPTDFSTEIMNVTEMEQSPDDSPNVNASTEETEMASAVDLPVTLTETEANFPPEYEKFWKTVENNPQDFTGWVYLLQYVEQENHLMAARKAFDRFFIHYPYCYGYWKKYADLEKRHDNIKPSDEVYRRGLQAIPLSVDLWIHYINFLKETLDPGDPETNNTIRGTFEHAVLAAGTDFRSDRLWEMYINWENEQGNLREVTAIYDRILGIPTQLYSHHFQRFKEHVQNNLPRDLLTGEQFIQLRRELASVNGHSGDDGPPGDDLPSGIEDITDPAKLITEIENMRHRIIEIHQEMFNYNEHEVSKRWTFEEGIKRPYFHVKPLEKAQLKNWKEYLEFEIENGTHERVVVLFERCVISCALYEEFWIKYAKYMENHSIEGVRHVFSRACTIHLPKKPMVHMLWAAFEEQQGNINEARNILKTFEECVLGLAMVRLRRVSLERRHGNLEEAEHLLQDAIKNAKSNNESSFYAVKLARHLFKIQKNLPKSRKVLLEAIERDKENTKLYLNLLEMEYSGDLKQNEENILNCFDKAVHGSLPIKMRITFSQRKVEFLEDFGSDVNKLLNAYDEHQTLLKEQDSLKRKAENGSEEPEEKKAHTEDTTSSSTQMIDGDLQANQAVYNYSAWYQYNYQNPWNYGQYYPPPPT
UniProt P13861, whole entry, looked up: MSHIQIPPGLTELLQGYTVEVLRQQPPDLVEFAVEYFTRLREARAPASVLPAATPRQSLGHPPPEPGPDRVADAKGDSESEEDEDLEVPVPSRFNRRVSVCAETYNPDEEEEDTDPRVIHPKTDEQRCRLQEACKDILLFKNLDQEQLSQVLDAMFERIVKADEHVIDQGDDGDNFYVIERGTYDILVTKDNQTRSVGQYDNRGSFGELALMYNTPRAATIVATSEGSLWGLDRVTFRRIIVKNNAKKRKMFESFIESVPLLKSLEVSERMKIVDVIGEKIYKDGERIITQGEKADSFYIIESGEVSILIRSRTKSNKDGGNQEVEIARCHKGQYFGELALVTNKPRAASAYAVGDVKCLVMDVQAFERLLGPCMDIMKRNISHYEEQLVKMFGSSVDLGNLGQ

Legend:
Test in all cases: log2 fold change, soluble protein after heating vs DMSO (PISA); higher = thermal stabilisation; K562 lysate, 10 uM; active = over 0.2 and 3.5 SD of the protein, either way, in both replicates (recomputed)
erlotinib = compound: C#Cc1cccc(Nc2ncnc3cc(OCCOC)c(OCCOC)cc23)c1 [erlotinib]
Procedure, shortened: (§1)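 Dounce homogenisation of K562 pellets in PBS pH 7.4 with 1 mM MgCl2 produced a crude extract, used at 1 mg/mL protein. Exposure to 10 μM compound lasted 30 min, and aliquots were then heated for 3 min across 48°C-58°C, pooled and brought to 0.5% NP-40 at 4°C. The supernatant after 21,000xg for 90 min was quantified by TMTpro 16plex LC-MS/MS with channel sums equalised. Duplicate values are given as log-two fold change in thermal stability relative to solvent controls.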

[1] = compound: C/C(=N\NC(=O)C1=CC(=CC=C1)S(=O)(=O)N2CCOCC2)/C3=C(C=CC(=C3)Cl)O
Procedure, shortened: as §1

[2] = compound: C1=CC(=CC=C1C2=NC3=C(N2)C=C(C=C3)C(=O)N)OC4=CC=C(C=C4)Cl
Procedure, shortened: as §1

[3] = compound: C1=CC2=C(C=CC(=C2)/C=C\3/C(=O)NC(=NCC4=CC=CS4)S3)N=C1
Procedure, shortened: as §1

[4] = compound: C1=CC2=NC=CN=C2C=C1/C=C/3\C(=O)NC(=O)S3
Procedure, shortened: as §1

[5] = compound: C1=CC=C(C=C1)C2=NC(=C(N2)C3=CC=NC=C3)C4=CC(=C(C=C4)Cl)O
Procedure, shortened: as §1

[6] = compound: C1=CC=C2C(=C1)C3=NNC4=CC=CC(=C43)C2=O
Procedure, shortened: as §1

[7] = compound: C1CCN(C1)C(=O)NC2=CC=CC(=C2)NC3=NC=C(C(=N3)NCCC4=CN=CN4)Br
Procedure, shortened: as §1

[8] = compound: C1CN(CCC1(CC2=CC=C(C=C2)Cl)N)C3=NC=NC4=C3C=CN4
Procedure, shortened: as §1

IRAK-1-4 Inhibitor I = compound: C1COCCN1CCN2C3=CC=CC=C3N=C2NC(=O)C4=CC(=CC=C4)[N+](=O)[O-] [IRAK-1-4 Inhibitor I]
Procedure, shortened: as §1

| Target | log2 fold change (erlotinib) | log2 fold change [1] | log2 fold change [2] | log2 fold change [3] | log2 fold change [4] | log2 fold change [5] | log2 fold change [6] | log2 fold change [7] | log2 fold change [8] | log2 fold change (IRAK-1-4 Inhibitor I) |
| --- | --- | --- | --- | --- | --- | --- | --- | --- | --- | --- |
| PRKCQ (UniProt Q04759) | inactive: -0.004 | inactive: -0.013 | inactive: 0.005 | inactive: 0.001 | inactive: -0.035 | inactive: 0.022 | inactive: -0.057 | inactive: -0.072 | inactive: 0.026 | inactive: -0.026 |
| PPIL2 (UniProt Q13356) | inactive: -0.03 | inactive: 0.02 | inactive: 0.007 | inactive: 0.021 | inactive: -0.002 | inactive: 0.039 | inactive: -0.045 | inactive: -0.036 | inactive: 0.003 | inactive: -0.016 |
| PRPF19 (UniProt Q9UMS4) | inactive: -0.007 | inactive: -0.025 | inactive: 0 | inactive: 0.027 | inactive: 0.011 | inactive: -0.027 | inactive: -0.013 | inactive: 0.041 | inactive: -0.041 | inactive: -0.032 |
| PRKACA (UniProt P17612) | inactive: -0.033 | inactive: -0.056 | inactive: 0.049 | inactive: 0.016 | inactive: -0.015 | inactive: -0.015 | inactive: 0.034 | inactive: 0.234 | inactive: 0.34 | inactive: 0.015 |
| PPP1R18 (UniProt Q6NYC8) | inactive: 0.012 | inactive: -0.012 | inactive: 0.006 | inactive: -0.025 | inactive: -0.019 | inactive: 0.006 | inactive: -0.045 | inactive: -0.025 | inactive: 0.033 | inactive: -0.002 |
| PRDM10 isoform 6 (UniProt Q9NQV6) | inactive: -0.045 | inactive: 0.032 | inactive: 0.007 | inactive: -0.063 | inactive: -0.072 | inactive: -0.042 | inactive: -0.093 | inactive: 0.146 | inactive: -0.058 | inactive: -0.158 |
| PRPF3 (UniProt O43395) | inactive: -0.036 | inactive: 0.027 | inactive: -0.01 | inactive: 0.01 | inactive: -0.033 | inactive: 0.015 | inactive: 0.008 | inactive: 0.011 | inactive: -0.009 | inactive: -0.027 |
| PRPF38B (UniProt Q5VTL8) | inactive: 0.053 | inactive: 0.021 | inactive: 0.017 | inactive: 0.027 | inactive: -0.031 | inactive: 0.025 | inactive: 0.013 | inactive: 0.021 | inactive: 0.021 | inactive: -0.028 |
| PPP1CB (UniProt P62140) | inactive: -0.002 | inactive: 0.019 | inactive: 0.022 | inactive: 0.012 | inactive: -0.068 | inactive: 0.003 | inactive: 0.014 | inactive: 0.005 | inactive: -0.046 | inactive: -0.007 |
| PPP2R5E (UniProt Q16537) | inactive: -0.021 | inactive: 0.036 | inactive: 0.024 | inactive: -0.021 | inactive: 0 | inactive: 0.005 | inactive: -0.024 | inactive: 0.009 | inactive: -0.012 | inactive: -0.027 |
| PPP1R12A (UniProt O14974) | inactive: -0.015 | inactive: -0.093 | inactive: 0.011 | inactive: 0.002 | inactive: -0.002 | inactive: -0.006 | inactive: -0.024 | inactive: -0.001 | inactive: -0.014 | inactive: 0.016 |
| PPP4C (UniProt P60510) | inactive: -0.008 | inactive: 0.033 | inactive: 0.023 | inactive: -0.023 | inactive: -0.087 | inactive: 0.031 | inactive: -0.009 | inactive: -0.028 | inactive: -0.01 | inactive: 0.013 |
| PPP5C (UniProt P53041) | inactive: -0.013 | inactive: -0.007 | inactive: 0.04 | inactive: 0.005 | inactive: -0.005 | inactive: 0.001 | inactive: 0.038 | inactive: 0.005 | inactive: 0.005 | inactive: 0.004 |
| PRPF39 (UniProt Q86UA1) | inactive: 0.011 | inactive: 0.015 | inactive: -0.082 | inactive: -0.03 | inactive: -0.001 | inactive: -0.032 | inactive: 0.007 | inactive: -0.044 | inactive: -0.03 | inactive: 0.027 |
| PRKAR2A (UniProt P13861) | inactive: 0.001 | inactive: 0.032 | inactive: 0.02 | inactive: -0.02 | inactive: -0.009 | inactive: 0 | inactive: -0.029 | active: -0.252 | inactive: -0.212 | inactive: -0.06 |
| PPWD1 (UniProt Q96BP3) | inactive: -0.015 | inactive: -0.004 | inactive: 0.013 | inactive: 0.013 | inactive: -0.019 | inactive: -0.001 | inactive: -0.021 | inactive: -0.009 | inactive: -0.016 | inactive: -0.021 |

Some of the entries above, reformatted:
Target	log2 fold change (erlotinib)	log2 fold change [1]	log2 fold change [2]	log2 fold change [3]	log2 fold change [4]	log2 fold change [5]	log2 fold change [6]	log2 fold change [7]	log2 fold change [8]	log2 fold change (IRAK-1-4 Inhibitor I)
PRKACA (UniProt P17612)	inactive: -0.033	inactive: -0.056	inactive: 0.049	inactive: 0.016	inactive: -0.015	inactive: -0.015	inactive: 0.034	inactive: 0.234	inactive: 0.34	inactive: 0.015
PRPF39 (UniProt Q86UA1)	inactive: 0.011	inactive: 0.015	inactive: -0.082	inactive: -0.03	inactive: -0.001	inactive: -0.032	inactive: 0.007	inactive: -0.044	inactive: -0.03	inactive: 0.027
